{"source": "PubChem BioAssay AID686937 (Drosophila RNAi Screening Center, 2013)", "screen": "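Genes in the fly needed for secretion of protein constitutively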 (primary screen)", "cells": "Drosophila S2 cells expressing secreted horseradish peroxidase", "knock-down reagent": "long dsRNA against Drosophila genes", "duration": "about 5.5 days (5 days dsRNA, then 12 h reporter induction)", "challenge": "reporter expression induced after 5 days of dsRNA, read 12 h later; inducer not stated", "measured": "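Chemiluminescent measurement of peroxidase in the medium 12 h after reporter induction, following 5 days of dsRNA, given as a z-score per plate; higher means more secretion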", "reading the numbers": "z-score: higher = more reporter secreted into medium", "note": "The screen tested about 23,000 reagents; shown is an unselected part of those with a known target gene and a result. 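Reduced-secretion tags in replicate 1 do not always agree with the z-scores; no criterion for assigning the tags was given.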 Not all columns of the deposit are shown. Not stated in the record: the amount of reagent."}
{"gene": "Cap-D2", "amplicon": "DRSC15401", "z-score, replicate 1": -0.32}
{"gene": "CG42284", "amplicon": "DRSC22094", "z-score, replicate 1": 0.18}
{"gene": "CG42284", "amplicon": "DRSC22342", "z-score, replicate 1": 0.22}
{"gene": "CG12818", "amplicon": "DRSC14556", "z-score, replicate 1": 0.07}
{"gene": "CG16749", "amplicon": "DRSC15146", "z-score, replicate 1": 0.42}
{"gene": "CG11414", "amplicon": "DRSC04110", "z-score, replicate 1": 0.24}
{"gene": "CG13362", "amplicon": "DRSC17897", "z-score, replicate 1": 0.37}
{"gene": "Blos2", "amplicon": "DRSC10147", "z-score, replicate 1": 0.4}
{"gene": "fliI", "amplicon": "DRSC20578", "z-score, replicate 1": -0.7}
{"gene": "CG14183", "amplicon": "DRSC10182", "z-score, replicate 1": 0.46}
{"gene": "IM33", "amplicon": "DRSC00476", "z-score, replicate 1": -0.03}
{"gene": "CG10576", "amplicon": "DRSC09745", "z-score, replicate 1": 0.49}
{"gene": "CG14990", "amplicon": "DRSC08449", "z-score, replicate 1": -0.15}
{"gene": "CG34434", "amplicon": "DRSC18134", "z-score, replicate 1": 0.33}
{"gene": "CG33223", "amplicon": "DRSC17572", "z-score, replicate 1": -0.08}
{"gene": "CG34384", "amplicon": "DRSC12642", "z-score, replicate 1": 0.23}
{"gene": "CG34384", "amplicon": "DRSC12644", "z-score, replicate 1": 0.04}
{"gene": "CG34384", "amplicon": "DRSC14855", "z-score, replicate 1": -0.13}
{"gene": "CG34384", "amplicon": "DRSC15444", "z-score, replicate 1": 0.17}
{"gene": "CG34384", "amplicon": "DRSC16575", "z-score, replicate 1": 0.23}

Single entries from the entries so far.
For “z-score, replicate 1”, fliI [DRSC20578] reads -0.7
Under “z-score, replicate 1”, CG10576 [DRSC09745] has 0.49
Under “z-score, replicate 1”, CG12818 [DRSC14556] shows 0.07
